No constants are given. Whether binding was seen depends on the method and setting. Some binding calls cover weakened binding; strength is not graded here.
T1: human protease nexin-1 (human) (UniProt P07093)
T1 sequence (looked up): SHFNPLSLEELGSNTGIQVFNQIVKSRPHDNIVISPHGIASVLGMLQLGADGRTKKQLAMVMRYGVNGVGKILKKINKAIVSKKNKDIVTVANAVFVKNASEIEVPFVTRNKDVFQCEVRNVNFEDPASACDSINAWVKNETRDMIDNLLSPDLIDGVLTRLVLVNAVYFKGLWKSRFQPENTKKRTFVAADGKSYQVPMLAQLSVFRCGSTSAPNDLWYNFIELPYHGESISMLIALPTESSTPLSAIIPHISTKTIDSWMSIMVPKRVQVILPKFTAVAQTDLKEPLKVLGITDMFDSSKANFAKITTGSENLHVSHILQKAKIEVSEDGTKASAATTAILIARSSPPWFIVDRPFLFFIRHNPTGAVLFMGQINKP

T2: murine protease nexin-1 (murine) (UniProt Q07235)
T2 sequence (looked up): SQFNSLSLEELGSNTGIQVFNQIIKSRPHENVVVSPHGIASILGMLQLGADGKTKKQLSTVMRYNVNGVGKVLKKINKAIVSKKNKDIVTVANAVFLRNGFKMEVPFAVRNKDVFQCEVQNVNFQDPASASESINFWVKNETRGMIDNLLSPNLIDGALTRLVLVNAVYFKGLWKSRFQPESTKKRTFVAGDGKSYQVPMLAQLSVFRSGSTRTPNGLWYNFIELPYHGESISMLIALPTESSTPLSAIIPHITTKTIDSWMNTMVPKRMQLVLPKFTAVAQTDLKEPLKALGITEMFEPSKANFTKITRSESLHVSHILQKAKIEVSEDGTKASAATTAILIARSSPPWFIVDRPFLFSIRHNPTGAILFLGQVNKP

B1: B11 (VHH)
VHH: EVQLQASGGGFVQPGGSLRLSCAASGSTWFREIMGWFRQAPGKEREFVSAISSDPTWHAYYADSVKGRFTISRDNSKNTVYLQMNSLRAEDTATYYCAPLAGTESIHWWDPWHESSYWGQGTQVTVSS
notes: Monovalent VHH from the synthetic hs2dAb library, made in E. coli WK6, purified by its His tag, detected by anti-cMyc or anti-6xHis; also called VHH B11; BI 1; not shown: cMyc tag and 6xHis tag (pHEN2 vector)
B2: A08 (VHH)
VHH: EVQLQASGGGFVQPGGSLRLSCAASGYYSYSSTMGWFRQAPGKEREFVSAISFYSDMAHYYADSVKGRFTISRDNSKNTVYLQMNSLRAEDTATYYCAAFSKLGKIKYWGQGTQVTVSS
notes: Monovalent VHH from the synthetic hs2dAb library; His-tagged, detected by anti-cMyc or anti-6xHis; also called VHH A08; single domain antibody A08; not shown: cMyc tag and 6xHis tag (pHEN2 vector)
B3: F06 (VHH)
VHH: EVQLQASGGGFVQPGGSLRLSCAASGDTWSLEIMGWFRQAPGKEREFVSAISSEDGWHAYYADSVKGRFTISRDNSKNTVYLQMNSLRAEDTATYYCAKIENWIQAVEGEMSDYWGQGTQVTVSS
notes: Monovalent VHH from the synthetic hs2dAb library; His-tagged, detected by anti-cMyc or anti-6xHis; also called VHH F06; single domain antibody F06; not shown: cMyc tag and 6xHis tag (pHEN2 vector)
B4: B11-A08 (VHH)
chain: EVQLQASGGGFVQPGGSLRLSCAASGSTWFREIMGWFRQAPGKEREFVSAISSDPTWHAYYADSVKGRFTISRDNSKNTVYLQMNSLRAEDTATYYCAPLAGTESIHWWDPWHESSYWGQGTQVTVSSGGGSGGGSGGGSGGGSEVQLQASGGGFVQPGGSLRLSCAASGYYSYSSTMGWFRQAPGKEREFVSAISFYSDMAHYYADSVKGRFTISRDNSKNTVYLQMNSLRAEDTATYYCAAFSKLGKIKYWGQGTQVTVSSHHHHHH
notes: Bivalent (biparatopic) tandem B11-linker-A08; also called bivalent hybribody B11-A08; bivalent VHH B11A08
B5: B11-Bv (VHH)
chain: EVQLQASGGGFVQPGGSLRLSCAASGSTWFREIMGWFRQAPGKEREFVSAISSDPTWHAYYADSVKGRFTISRDNSKNTVYLQMNSLRAEDTATYYCAPLAGTESIHWWDPWHESSYWGQGTQVTVSSAAAEVQLQASGGGFVQPGGSLRLSCAASGSTWFREIMGWFRQAPGKEREFVSAISSDPTWHAYYADSVKGRFTISRDNSKNTVYLQMNSLRAEDTATYYCAPLAGTESIHWWDPWHESSYWGQGTQVTVSSHHHHHH
notes: Bivalent (monoparatopic) tandem of two B11 VHHs; also called bivalent hybribody B11-Bv; bivalent VHH B11bv
B6: B11-F06 (VHH)
chain: EVQLQASGGGFVQPGGSLRLSCAASGSTWFREIMGWFRQAPGKEREFVSAISSDPTWHAYYADSVKGRFTISRDNSKNTVYLQMNSLRAEDTATYYCAPLAGTESIHWWDPWHESSYWGQGTQVTVSSGGGSGGGSGGGSGGGSEVQLQASGGGFVQPGGSLRLSCAASGDTWSLEIMGWFRQAPGKEREFVSAISSEDGWHAYYADSVKGRFTISRDNSKNTVYLQMNSLRAEDTATYYCAKIENWIQAVEGEMSDYWGQGTQVTVSSHHHHHH
notes: Bivalent (biparatopic) tandem B11-linker-F06; also called bivalent hybribody B11-F06; bivalent VHH B11F06

target: T1, human protease nexin-1 (human); experiment: ELISA, 0.5 µg PN-1 coated per well, VHH 0.3 to 20 µg/mL, anti-cMyc detection

binding	Binder
binds	B1
binds	B2
binds	B3

target: T2, murine protease nexin-1 (murine); experiment: ELISA, 0.5 µg PN-1 coated per well, bivalent VHH 0.3 to 20 µg/mL, anti-6xHis detection

Binder	binding
B4	binds
B5	binds
B6	binds

target: T1, human protease nexin-1 (human); experiment: as above

Binder	binding
B4	binds
B5	binds
B6	binds

target: T1, human protease nexin-1 (human); experiment: non-adsorbed phage ELISA, phage on coated antigen, anti-M13 detection

binding	Binder
binds	B1
binds	B2
binds	B3

Reference: patent US20220259295A1 (INSERM INSTITUT NATIONAL DE LA SANT ET DE LA RECHERCHE M …, published 2022)
